The text below walks through data of patent publication US20220056125A1.

Sequences of proteins named here, by UniProt entry; tags and fusion partners are left off. A change or cut given only in a name is not applied to a line headed by its entry.
UniProt P55085: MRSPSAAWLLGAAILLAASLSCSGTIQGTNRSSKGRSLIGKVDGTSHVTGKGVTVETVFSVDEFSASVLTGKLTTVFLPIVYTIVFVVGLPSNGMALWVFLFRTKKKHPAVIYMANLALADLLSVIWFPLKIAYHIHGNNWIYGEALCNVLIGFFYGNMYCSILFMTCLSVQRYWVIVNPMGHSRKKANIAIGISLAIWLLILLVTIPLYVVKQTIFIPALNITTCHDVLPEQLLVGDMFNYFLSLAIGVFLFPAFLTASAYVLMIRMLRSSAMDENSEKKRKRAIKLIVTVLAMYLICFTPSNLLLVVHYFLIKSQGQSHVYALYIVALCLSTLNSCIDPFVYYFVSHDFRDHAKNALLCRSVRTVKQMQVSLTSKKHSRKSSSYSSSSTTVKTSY

Where a chain is given by its changes, count along the chain named. These are yes or no findings as the source states them, for the method shown. Some results given as binding are weak or reduced against the parent protein; the word gives no strength.

The target of assay [1] is recombinant human PAR-2 (human) (UniProt P55085). As to the kind of experiment: Biacore SPR on recombinant PAR-2. Background: In SPR one partner is held on a chip, and binding of the other changes the refractive index at the surface.
For assay [2] the target is unchanged. As to the kind of experiment: Biacore SPR on recombinant PAR-2 (assay not given).
Assay [3] shares this target. As to the kind of experiment: SPR using PAR-2 preparations.
Assay [4] deals with T1, recombinant rat PAR-2 (rat) (UniProt Q63645).
T1 sequence: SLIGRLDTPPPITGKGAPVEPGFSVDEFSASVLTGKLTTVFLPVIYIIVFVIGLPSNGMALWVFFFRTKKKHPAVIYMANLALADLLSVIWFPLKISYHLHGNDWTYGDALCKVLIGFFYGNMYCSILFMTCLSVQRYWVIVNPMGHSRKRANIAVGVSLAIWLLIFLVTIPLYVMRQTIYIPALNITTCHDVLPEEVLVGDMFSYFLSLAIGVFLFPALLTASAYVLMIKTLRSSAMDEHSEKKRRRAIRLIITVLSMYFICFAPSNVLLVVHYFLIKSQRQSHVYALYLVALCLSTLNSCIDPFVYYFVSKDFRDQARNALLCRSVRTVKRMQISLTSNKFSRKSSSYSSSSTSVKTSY
Briefly: SPR using PAR-2 preparations.

Assay [5] addresses guinea pig PAR-2 on cells (guinea pig). Briefly: flow cytometry, transiently transfected CHEM-1 cells.
Assay [6] concerns the target T2, rabbit PAR-2 on cells (rabbit) (UniProt G1SHU9).
T2 sequence: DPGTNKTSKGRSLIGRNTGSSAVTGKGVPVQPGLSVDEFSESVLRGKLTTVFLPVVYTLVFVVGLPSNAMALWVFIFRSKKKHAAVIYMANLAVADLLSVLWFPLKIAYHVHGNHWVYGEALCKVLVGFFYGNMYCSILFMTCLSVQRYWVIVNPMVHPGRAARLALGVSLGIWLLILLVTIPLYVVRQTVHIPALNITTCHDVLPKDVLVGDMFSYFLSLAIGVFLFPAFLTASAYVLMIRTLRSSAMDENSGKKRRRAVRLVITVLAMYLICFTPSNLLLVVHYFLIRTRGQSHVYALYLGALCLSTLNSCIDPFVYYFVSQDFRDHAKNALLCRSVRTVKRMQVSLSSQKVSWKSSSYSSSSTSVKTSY
The description is as above.

Assay [7] deals with T1, recombinant rat PAR-2 (rat). Briefly: SPR, antibody captured on Protein A chip, recombinant PAR-2 injected.

B1: P24E5 (antibody, human IgG4 S228P, kappa, V domains shown)
VH: QVQLVQSGAEVKKPGSSVKVSCKASGFSLSSYGVIWVRQAPGQGLEWMGVIWGNGNTYYNQKFQGRVTITADESTSTAYMELSSLRSEDTAVYYCARWRGYKDYPFDYWGQGTLVTVSS
VL: EIVLTQSPATLSLSPGERATLSCKASQNIYKYLDWYQQKPGQAPRLLIYNTNSLHTGIPARFSGSGSGRDFTLTISSLEPEDFAVYYCLQHNSGWTFGGGTKVEIKR
Take B1: the binding result in assay [1] is listed as “binds”.

B2: P24E27 (antibody, human IgG4 S228P, kappa, V domains shown)
VH: B1 VH with S30N
VL: B1 VL with K24R
B2: the binding result in assay [2] is “binds”.

B3: P24E1102 (antibody, human IgG4 S228P, kappa, V domains shown)
VH: B1 VH with G33A, V34I, I35S, G55Q, T57V, N60A, R99K
VL: B1 VL with K24R, I29V, Y32W, T51A, S53T, L54R, H55A, L89Q, N92H
As for B3, the binding entry in assay [3], in assay [4], in assay [5], in assay [6] and in assay [7] was “binds” each time.

B4: P24E36 (antibody, human IgG4 S228P, kappa, V domains shown)
VH: B1 VH with S30N
VL: B1 VL with T51A
B4: the binding result in assay [1] was “binds”.

B5: P24E29 (antibody, human IgG4 S228P, kappa, V domains shown)
VH: B1 VH with S30N
VL: B1 VL with I29V
For the molecule B5, the binding result in assay [2] was “binds”.

B6: P24E39 (antibody, human IgG4 S228P, kappa, V domains shown)
VH: B1 VH with S30N
VL: B1 VL with L54R
Regarding B6, the binding entry in assay [1] is listed as “binds”.
